Assay results reported in the supplement of paper PMC10849652.
Some of the results follow.

Amino acid sequences for entries named in this document (tags omitted). A change or cut given only in a name is not applied to a line headed by its entry.
UniProt Q9BT43: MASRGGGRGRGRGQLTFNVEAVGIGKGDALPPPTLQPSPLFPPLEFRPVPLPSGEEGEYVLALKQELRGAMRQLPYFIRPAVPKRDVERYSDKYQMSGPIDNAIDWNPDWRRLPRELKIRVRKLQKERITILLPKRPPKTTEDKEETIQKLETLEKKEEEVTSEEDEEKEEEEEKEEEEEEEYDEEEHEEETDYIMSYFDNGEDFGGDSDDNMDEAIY
UniProt Q9NRF9: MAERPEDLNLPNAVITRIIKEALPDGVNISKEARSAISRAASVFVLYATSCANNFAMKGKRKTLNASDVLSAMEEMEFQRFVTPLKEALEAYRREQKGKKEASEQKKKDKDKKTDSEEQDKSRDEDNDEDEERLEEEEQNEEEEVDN
UniProt Q13136: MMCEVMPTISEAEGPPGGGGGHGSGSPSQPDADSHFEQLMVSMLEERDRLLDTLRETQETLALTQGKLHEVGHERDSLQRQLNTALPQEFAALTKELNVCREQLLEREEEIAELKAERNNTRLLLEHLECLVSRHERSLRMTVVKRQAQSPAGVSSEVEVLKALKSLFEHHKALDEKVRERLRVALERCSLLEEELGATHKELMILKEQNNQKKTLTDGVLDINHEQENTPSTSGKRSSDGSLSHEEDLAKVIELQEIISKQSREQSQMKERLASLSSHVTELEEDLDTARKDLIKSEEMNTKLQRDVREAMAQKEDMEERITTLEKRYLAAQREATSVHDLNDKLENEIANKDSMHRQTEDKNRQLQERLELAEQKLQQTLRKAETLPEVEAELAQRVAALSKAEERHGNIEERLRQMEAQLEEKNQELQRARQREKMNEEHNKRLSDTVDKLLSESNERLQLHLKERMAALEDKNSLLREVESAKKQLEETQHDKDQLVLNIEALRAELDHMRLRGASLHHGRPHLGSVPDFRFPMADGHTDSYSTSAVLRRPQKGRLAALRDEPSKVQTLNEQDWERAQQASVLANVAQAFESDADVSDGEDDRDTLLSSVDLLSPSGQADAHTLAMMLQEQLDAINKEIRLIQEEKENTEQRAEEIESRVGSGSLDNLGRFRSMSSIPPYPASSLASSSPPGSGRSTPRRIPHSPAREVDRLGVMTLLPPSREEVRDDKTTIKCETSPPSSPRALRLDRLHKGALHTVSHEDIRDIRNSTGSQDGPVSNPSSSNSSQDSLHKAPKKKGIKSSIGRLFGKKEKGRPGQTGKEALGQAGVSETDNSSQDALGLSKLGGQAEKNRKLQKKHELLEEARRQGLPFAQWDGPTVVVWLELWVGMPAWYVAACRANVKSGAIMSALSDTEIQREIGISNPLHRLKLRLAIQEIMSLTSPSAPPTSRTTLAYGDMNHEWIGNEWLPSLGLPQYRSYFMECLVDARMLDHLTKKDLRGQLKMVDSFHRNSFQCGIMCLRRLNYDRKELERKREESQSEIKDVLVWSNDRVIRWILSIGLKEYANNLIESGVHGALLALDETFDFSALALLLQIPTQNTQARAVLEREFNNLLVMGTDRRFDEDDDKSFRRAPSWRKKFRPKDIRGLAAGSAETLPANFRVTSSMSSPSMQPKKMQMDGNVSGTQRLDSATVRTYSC
UniProt Q06203, whole entry, looked up: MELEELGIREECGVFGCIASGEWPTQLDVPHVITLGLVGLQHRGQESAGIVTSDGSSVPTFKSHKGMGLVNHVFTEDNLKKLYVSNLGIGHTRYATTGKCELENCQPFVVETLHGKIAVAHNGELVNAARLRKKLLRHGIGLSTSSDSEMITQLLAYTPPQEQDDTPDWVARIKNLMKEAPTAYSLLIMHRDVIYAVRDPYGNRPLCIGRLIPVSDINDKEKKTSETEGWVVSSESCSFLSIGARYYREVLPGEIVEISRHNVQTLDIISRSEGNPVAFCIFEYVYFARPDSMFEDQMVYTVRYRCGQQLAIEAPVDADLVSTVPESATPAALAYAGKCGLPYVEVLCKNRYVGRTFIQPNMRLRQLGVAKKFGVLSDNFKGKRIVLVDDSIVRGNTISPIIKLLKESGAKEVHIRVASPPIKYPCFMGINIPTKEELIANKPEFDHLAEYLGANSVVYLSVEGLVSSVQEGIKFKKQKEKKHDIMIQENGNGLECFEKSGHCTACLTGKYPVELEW
UniProt P0DPB6, whole entry, looked up: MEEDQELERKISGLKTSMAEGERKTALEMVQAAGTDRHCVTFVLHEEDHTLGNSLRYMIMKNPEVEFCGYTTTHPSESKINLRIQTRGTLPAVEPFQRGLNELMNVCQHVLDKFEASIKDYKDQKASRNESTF
UniProt Q96CD2: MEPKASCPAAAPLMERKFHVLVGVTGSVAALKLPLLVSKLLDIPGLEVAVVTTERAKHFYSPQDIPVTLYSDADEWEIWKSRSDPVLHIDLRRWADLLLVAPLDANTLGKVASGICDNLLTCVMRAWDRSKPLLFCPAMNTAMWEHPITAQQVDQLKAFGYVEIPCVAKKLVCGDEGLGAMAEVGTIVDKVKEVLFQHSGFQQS
UniProt Q8IWE5: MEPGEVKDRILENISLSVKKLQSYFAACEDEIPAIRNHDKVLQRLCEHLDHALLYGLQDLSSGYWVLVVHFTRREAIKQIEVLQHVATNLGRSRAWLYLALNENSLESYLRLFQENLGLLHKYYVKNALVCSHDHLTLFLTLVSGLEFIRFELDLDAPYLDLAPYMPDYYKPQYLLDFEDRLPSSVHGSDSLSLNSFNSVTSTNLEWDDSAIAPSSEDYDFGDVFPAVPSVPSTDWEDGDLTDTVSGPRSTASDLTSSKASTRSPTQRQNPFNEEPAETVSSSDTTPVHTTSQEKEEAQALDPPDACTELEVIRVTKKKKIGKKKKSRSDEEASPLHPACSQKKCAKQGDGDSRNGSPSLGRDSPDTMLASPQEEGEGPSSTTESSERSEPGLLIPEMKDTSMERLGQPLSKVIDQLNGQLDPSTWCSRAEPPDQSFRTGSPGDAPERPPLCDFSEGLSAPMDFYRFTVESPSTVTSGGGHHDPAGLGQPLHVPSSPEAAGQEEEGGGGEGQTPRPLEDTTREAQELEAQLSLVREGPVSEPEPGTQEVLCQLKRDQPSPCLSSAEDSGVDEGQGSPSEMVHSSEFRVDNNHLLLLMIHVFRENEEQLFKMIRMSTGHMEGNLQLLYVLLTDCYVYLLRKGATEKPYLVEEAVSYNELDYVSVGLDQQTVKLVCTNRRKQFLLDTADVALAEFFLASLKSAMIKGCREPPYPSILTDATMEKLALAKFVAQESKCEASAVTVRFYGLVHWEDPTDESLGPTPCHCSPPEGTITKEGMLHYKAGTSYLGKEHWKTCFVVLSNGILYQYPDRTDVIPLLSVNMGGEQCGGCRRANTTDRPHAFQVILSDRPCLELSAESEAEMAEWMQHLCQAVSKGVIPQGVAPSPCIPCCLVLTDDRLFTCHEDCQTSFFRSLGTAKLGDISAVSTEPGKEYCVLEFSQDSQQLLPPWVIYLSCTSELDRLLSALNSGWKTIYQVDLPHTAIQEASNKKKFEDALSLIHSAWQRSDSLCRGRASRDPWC
UniProt P45877: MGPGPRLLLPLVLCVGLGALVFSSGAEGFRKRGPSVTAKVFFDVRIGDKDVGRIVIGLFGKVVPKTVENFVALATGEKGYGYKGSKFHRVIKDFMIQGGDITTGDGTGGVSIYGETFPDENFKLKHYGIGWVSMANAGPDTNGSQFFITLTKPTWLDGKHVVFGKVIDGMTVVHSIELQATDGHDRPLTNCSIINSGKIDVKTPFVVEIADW
UniProt O15318: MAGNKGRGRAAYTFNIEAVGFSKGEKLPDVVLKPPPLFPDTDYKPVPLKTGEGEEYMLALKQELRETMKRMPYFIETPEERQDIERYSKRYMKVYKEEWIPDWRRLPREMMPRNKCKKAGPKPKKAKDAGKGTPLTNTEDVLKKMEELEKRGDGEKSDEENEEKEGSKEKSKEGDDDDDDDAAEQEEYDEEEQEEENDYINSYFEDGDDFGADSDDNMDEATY
UniProt Q9Y2Y1: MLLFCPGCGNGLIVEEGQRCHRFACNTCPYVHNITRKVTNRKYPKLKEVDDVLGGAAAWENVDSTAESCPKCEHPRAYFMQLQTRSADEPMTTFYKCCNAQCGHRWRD

Key:
Test in all cases: log2 fold change, soluble protein after heating vs DMSO (PISA); higher = thermal stabilisation; K562 lysate, 10 uM; active = over 0.2 and 3.5 SD of the protein, either way, in both replicates (recomputed)
nilotinib = compound: Cc1cn(-c2cc(NC(=O)c3ccc(C)c(Nc4nccc(-c5cccnc5)n4)c3)cc(C(F)(F)F)c2)cn1 [nilotinib]
Method in brief: (§1)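 Pellets of K562 cells were dounce-homogenised in PBS pH 7.4 with 1 mM MgCl2, and the crude extract was held at 1 mg/mL protein for a 30 min treatment with 10 μM compound. Aliquots were heated for 3 min over 48°C-58°C and pooled before NP-40 was added to 0.5% at 4°C. The supernatant from 21,000xg for 90 min was quantified by TMTpro 16plex LC-MS/MS with channel sums equalised. Values are reported from duplicates as log-two fold change in thermal stability relative to solvent controls.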

[1] = compound: Cc1nc(Nc2n[nH]c3c2CN(C(=O)N[C@H](CN(C)C)c2ccccc2)C3(C)C)c2sccc2n1
Method in brief: as §1

dasatinib = compound: Cc1nc(Nc2ncc(C(=O)Nc3c(C)cccc3Cl)s2)cc(N2CCN(CCO)CC2)n1 [dasatinib]
Method in brief: as §1

[2] = compound: Cc1ncc(-c2ccnc(Nc3ccc(S(C)(=O)=O)cc3)n2)n1C(C)C
Method in brief: as §1

[3] = compound: Cn1cc(-c2ccc3c(c2)CCN3C(=O)Cc2cccc(C(F)(F)F)c2)c2c(N)ncnc21
Method in brief: as §1

quisinostat = compound: Cn1cc(CNCC2CCN(c3ncc(C(=O)NO)cn3)CC2)c2ccccc21 [quisinostat]
Method in brief: as §1

tipifarnib = compound: Cn1cncc1[C@@](N)(c1ccc(Cl)cc1)c1ccc2c(c1)c(-c1cccc(Cl)c1)cc(=O)n2C [tipifarnib]
Method in brief: as §1

[4] = compound: NC(=O)Nc1cc(-c2cccc(F)c2)sc1C(=O)N[C@H]1CCCNC1
Method in brief: as §1

[5] = compound: NC(=O)c1cnc(N[C@@H]2CCCC[C@@H]2N)nc1Nc1cccc(-n2nccn2)c1
Method in brief: as §1

[6] = compound: NC1(c2ccc(-c3nc4ccn5c(=O)[nH]nc5c4cc3-c3ccccc3)cc2)CCC1
Method in brief: as §1

[7] = compound: NCC(=O)Nc1ccc(-n2nc(C(F)(F)F)cc2-c2ccc3c(ccc4ccccc43)c2)cc1
Method in brief: as §1

vorinostat = compound: O=C(CCCCCCC(=O)Nc1ccccc1)NO [vorinostat]
Method in brief: as §1

silmitasertib = compound: O=C(O)c1ccc2c(c1)nc(Nc1cccc(Cl)c1)c1ccncc12 [silmitasertib]
Method in brief: as §1

[8] = compound: O=C1NC(=O)C(c2cnc3ccccn23)=C1c1cn2c3c(cc(F)cc13)CN(C(=O)N1CCCCC1)CC2
Method in brief: as §1

entospletinib = compound: c1cn2cc(-c3ccc4cn[nH]c4c3)nc(Nc3ccc(N4CCOCC4)cc3)c2n1 [entospletinib]
Method in brief: as §1

Measured: log2 fold change

POLR3GL (UniProt Q9BT43)
inactive: nilotinib -0.017 | [1] 0.01 | dasatinib -0.07 | [2] -0.024 | [3] 0.043 | quisinostat -0.06 | tipifarnib 0.021 | [4] -0.051 | [5] -0.03 | [6] -0.085 | [7] -0.01 | vorinostat 0.117 | silmitasertib 0.025 | [8] 0.033 | entospletinib -0.012

POLE3 (UniProt Q9NRF9)
inactive: nilotinib -0.005 | [1] -0.002 | dasatinib -0.031 | [2] 0.001 | [3] -0.053 | quisinostat 0.075 | tipifarnib 0.02 | [4] -0.019 | [5] -0.002 | [6] -0.019 | [7] -0.011 | vorinostat 0.086 | silmitasertib -0.01 | [8] -0.001 | entospletinib 0.023

PPFIA1 (UniProt Q13136)
inactive: nilotinib -0.06 | [1] -0.061 | dasatinib -0.041 | [2] -0.011 | [3] 0.046 | quisinostat 0.014 | tipifarnib 0.002 | [4] 0.011 | [5] 0.046 | [6] -0.006 | [7] 0.013 | vorinostat 0.003 | silmitasertib -0.007 | [8] -0.032 | entospletinib -0.015

PPAT (UniProt Q06203)
inactive: nilotinib -0.008 | [1] 0.009 | dasatinib 0.024 | [2] 0.014 | [3] -0.002 | quisinostat 0.038 | tipifarnib 0.009 | [4] -0.048 | [5] -0.008 | [6] -0.017 | [7] 0.013 | vorinostat 0.095 | silmitasertib 0 | [8] -0.012 | entospletinib 0.026

POLR2C (UniProt P19387)
inactive: nilotinib 0.042 | [1] 0.002 | dasatinib -0.052 | [2] 0.086 | [3] 0.032 | quisinostat -0.046 | tipifarnib -0.019 | [4] 0.018 | [5] 0.016 | [6] 0.107 | [7] 0.025 | vorinostat -0.154 | silmitasertib -0.025 | [8] 0.016 | entospletinib 0.021

POLR1D (UniProt P0DPB6)
inactive: nilotinib -0.021 | [1] -0.021 | dasatinib 0.015 | [2] -0.039 | [3] -0.013 | quisinostat -0.039 | tipifarnib 0.07 | [4] 0.054 | [5] 0.013 | [6] 0.01 | [7] -0.027 | vorinostat -0.171 | silmitasertib -0.046 | [8] 0.027 | entospletinib 0.005

PPCDC (UniProt Q96CD2)
inactive: nilotinib -0.002 | [1] -0.014 | dasatinib -0.06 | [2] -0.017 | [3] -0.04 | quisinostat -0.015 | tipifarnib 0.022 | [4] 0.013 | [5] 0 | [6] 0.047 | [7] 0.001 | vorinostat -0.002 | silmitasertib 0.071 | [8] -0.015 | entospletinib 0.002

PLEKHM2 (UniProt Q8IWE5)
inactive: nilotinib 0.036 | [1] -0.071 | dasatinib 0.075 | [2] -0.022 | [3] 0.063 | quisinostat -0.064 | tipifarnib 0.012 | [4] 0.003 | [5] 0.027 | [6] -0.153 | [7] -0.022 | vorinostat 0.081 | silmitasertib 0 | [8] -0.036 | entospletinib -0.003

PPIC (UniProt P45877)
inactive: nilotinib -0.112 | [1] 0.069 | dasatinib 0.037 | [2] -0.02 | [3] -0.036 | quisinostat -0.063 | tipifarnib 0.145 | [4] 0.206 | [6] -0.045 | [7] 0.12 | vorinostat 0.044 | silmitasertib 0.021 | [8] 0.262

POLR3G (UniProt O15318)
inactive: nilotinib -0.054 | [1] -0.029 | dasatinib 0.047 | [2] 0.04 | [3] 0 | quisinostat -0.028 | tipifarnib 0.027 | [4] 0.014 | [5] 0.016 | [6] 0.063 | [7] 0.039 | vorinostat 0.106 | silmitasertib -0.035 | [8] 0.047 | entospletinib -0.054

POLR3K (UniProt Q9Y2Y1)
inactive: nilotinib -0.022 | [1] 0.035 | dasatinib -0.108 | [2] -0.005 | [3] 0.049 | quisinostat -0.008 | tipifarnib 0.035 | [4] -0.012 | [5] 0.015 | [6] -0.009 | [7] 0.023 | vorinostat 0.038 | silmitasertib 0.024 | [8] 0.005 | entospletinib -0.011
